We go through one substance from paper doi:10.1101/2021.07.08.451586.

Chains of the proteins cited; added tags and fusions are not shown. Lines headed by an entry give the natural chain unless they say otherwise; changes in a name come on top.
UniProt Q15172: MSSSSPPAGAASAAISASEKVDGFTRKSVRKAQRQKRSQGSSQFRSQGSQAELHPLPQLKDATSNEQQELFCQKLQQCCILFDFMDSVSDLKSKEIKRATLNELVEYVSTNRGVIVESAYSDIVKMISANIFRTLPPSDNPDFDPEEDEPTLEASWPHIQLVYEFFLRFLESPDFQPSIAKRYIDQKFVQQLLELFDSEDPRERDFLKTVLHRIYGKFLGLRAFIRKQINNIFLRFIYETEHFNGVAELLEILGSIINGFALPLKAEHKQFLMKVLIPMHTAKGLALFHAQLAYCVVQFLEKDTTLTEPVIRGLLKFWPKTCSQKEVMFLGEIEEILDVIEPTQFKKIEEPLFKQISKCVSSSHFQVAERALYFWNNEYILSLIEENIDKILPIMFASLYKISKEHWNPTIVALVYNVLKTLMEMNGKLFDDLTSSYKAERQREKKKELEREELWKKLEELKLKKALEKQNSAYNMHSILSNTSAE
UniProt P67775: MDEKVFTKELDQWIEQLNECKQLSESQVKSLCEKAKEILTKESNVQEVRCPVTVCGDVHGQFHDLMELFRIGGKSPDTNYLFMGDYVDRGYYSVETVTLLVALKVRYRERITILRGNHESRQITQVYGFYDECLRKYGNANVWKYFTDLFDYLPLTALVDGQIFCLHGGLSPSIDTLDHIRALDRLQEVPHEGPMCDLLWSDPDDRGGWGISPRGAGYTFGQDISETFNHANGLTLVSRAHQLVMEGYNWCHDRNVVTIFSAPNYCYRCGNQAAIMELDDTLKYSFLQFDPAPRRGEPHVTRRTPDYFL

Results are given in words; binding and its absence hold for the method and conditions named. In cells and extracts the contact can be indirect. Binding can be weak; no strength is given.

The target in the test is Strep-B56α (UniProt Q15172). In words: pull-down + SEC.

Take “His-PP2ACA (from UniProt P67775) (enzyme)”: the binding entry is on record as “binds”.
